Assay [1] has as its target T1, Flag-tagged TWF2 (Twinfilin actin-binding protein 2), wild type, overexpressed in 786-O cells (human) (UniProt Q6IBS0).
T1 sequence: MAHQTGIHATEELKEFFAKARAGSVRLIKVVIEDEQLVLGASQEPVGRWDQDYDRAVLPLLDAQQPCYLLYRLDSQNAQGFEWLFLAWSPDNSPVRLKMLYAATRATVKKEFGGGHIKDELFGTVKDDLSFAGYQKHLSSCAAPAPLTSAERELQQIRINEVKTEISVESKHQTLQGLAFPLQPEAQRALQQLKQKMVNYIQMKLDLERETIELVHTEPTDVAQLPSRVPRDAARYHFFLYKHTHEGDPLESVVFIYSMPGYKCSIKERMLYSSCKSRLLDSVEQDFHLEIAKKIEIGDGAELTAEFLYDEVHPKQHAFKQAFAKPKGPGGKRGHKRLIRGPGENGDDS
In words: co-IP; 786-O cells transfected with Flag-TWF2 and HA-tagged YAP constructs; precipitated with anti-Flag antibody, blotted with anti-HA and anti-Flag.

By UniProt entry, the sequences of proteins in these tests, tags left out.
UniProt P46937: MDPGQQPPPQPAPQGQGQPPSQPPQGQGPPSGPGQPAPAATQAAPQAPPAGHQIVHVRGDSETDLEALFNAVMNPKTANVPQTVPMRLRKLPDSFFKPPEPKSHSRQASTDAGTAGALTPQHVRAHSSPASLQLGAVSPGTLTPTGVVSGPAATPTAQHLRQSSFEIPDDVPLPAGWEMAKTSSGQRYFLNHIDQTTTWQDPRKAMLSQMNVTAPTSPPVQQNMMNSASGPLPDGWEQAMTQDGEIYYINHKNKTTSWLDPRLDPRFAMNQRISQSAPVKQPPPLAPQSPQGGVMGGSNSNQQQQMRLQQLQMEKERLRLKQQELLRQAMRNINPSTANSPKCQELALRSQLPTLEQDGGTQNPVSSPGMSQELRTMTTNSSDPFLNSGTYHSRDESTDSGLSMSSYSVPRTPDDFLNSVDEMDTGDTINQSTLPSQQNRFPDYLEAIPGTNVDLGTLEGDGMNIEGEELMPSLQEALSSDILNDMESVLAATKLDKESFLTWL

Assay [2] addresses T1, Flag-tagged TWF2 (Twinfilin actin-binding protein 2), wild type, overexpressed in 786-O cells (human). The experiment in a line: co-IP; overexpressed Flag-tagged TWF2 (wild type or M99A) and YAP in 786-O cell lysate; anti-Flag magnetic beads.
Assay [3] deals with T2, TWF2, endogenous in RCC cells (human (endogenous in 769-P, 786-O-R)) (UniProt Q6IBS0).
T2 sequence: T1 sequence
The experiment in a line: co-IP; 786-O-R (sunitinib-resistant) cells treated with increasing concentrations of salvianolic acid E.

Assay [4] addresses T2, TWF2, endogenous in RCC cells (human (endogenous in 769-P, 786-O-R)). The experiment in a line: co-IP; endogenous TWF2 and YAP in 769-P cell lysate.
Assay [5] concerns the target T3, Flag-tagged TWF2 H137A, expressed in 293T cells (human) (UniProt Q6IBS0).
T3 sequence: T1 sequence with H137A
The experiment in a line: co-IP; 293T cells cotransfected with Flag-TWF2 (wild type or alanine mutants) and YAP; precipitated with anti-Flag antibody.

Assay [6] concerns the target T4, Flag-tagged TWF2 E120A, expressed in 293T cells (human) (UniProt Q6IBS0).
T4 sequence: T1 sequence with E120A
The assay is described as above.

Assay [7] addresses T5, Flag-tagged TWF2 R96A, expressed in 293T cells (human) (UniProt Q6IBS0).
T5 sequence: T1 sequence with R96A
The assay is described as above.

Assay [8] deals with T6, Flag-tagged TWF2, wild type, expressed in 293T cells (human) (UniProt Q6IBS0).
T6 sequence: T1 sequence
The description is as above.

Positions count from the first letter of the chain named. These are yes or no findings as the source states them, for the method shown. In cells and extracts the contact can be indirect. Some entries that bind do so weakly or less than the wild type. For some assays here: Where a sequence is shown, tags or fusion partners need not be part of it.

On to “HA-tagged wild-type YAP (full-length, 1-504), expressed in 786-O cells (from UniProt P46937 1-504)”, for which, in assay [1], the binding result is recorded as “binds”.
With “Yes-associated protein (YAP), endogenous in RCC cells (from UniProt P46937 1-504)”, the binding entry in assay [2], in assay [3] and in assay [4] was “binds” each time.
As to “HA-tagged YAP, wild type, expressed in 293T cells (from UniProt P46937 1-504)”, the binding entry in assay [5], in assay [6], in assay [7] and in assay [8] was “binds” in each case.

Source of the values: PMC12667553, “TWF2 Drives Tumor Progression and Sunitinib Resistance in Renal Cell Carcinoma through Hippo Signaling Suppression” (Advanced Science, 2025).
